Results from PubChem BioAssay AID504327 (National Center for Advancing Translational Sciences (NCATS), 2011).
In all, about 390,000 compounds went through this assay and about 820 (0.21%) were called active. The inconclusive results got no clear call from the source; some entries with a clear call stand among them for comparison. The call rests on the fitted dose curve; in most records, active means well fitted inhibition curve with a large enough effect; inconclusive means small, poorly fitted or top-dose-only effect, or another doubt; inactive means no such curve, though single readings can be large or run the other way. Potencies of inconclusive entries are doubtful fits and often do not repeat.

The chains behind the UniProt entries cited, without tags or fusion partners.
UniProt Q92830, whole entry, looked up: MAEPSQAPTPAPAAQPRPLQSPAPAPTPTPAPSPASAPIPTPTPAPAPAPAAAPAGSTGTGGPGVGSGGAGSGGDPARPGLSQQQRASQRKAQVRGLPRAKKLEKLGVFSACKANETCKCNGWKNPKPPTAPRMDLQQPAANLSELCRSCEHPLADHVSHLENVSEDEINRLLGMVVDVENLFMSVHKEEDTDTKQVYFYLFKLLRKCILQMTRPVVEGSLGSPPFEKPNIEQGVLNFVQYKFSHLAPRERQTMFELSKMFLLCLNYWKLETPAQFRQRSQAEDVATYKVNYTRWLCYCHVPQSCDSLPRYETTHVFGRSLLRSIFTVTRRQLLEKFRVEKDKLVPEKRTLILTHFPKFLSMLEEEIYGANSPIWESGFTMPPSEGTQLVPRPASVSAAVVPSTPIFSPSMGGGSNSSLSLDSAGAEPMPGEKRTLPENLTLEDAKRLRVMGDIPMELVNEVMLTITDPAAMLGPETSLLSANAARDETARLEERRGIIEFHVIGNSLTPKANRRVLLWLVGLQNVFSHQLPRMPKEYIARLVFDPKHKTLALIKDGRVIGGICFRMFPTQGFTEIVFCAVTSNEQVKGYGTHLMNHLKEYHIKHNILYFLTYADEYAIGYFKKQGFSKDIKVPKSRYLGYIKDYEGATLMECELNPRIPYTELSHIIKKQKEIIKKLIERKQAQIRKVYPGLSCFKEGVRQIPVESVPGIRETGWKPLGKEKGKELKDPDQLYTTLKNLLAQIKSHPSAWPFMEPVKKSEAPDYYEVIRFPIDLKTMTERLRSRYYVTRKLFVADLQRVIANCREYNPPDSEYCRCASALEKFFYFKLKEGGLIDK

Each compound was assayed against Histone acetyltransferase KAT2A (Homo sapiens) (UniProt Q92830) (assay: qHTS Assay for Inhibitors of GCN5L2). Conditions: GCN5L2 HAT assay, ThioGlo1 CoA-SH fluorescence; activity change, negative = inhibition: at 58.9 µM (top of the series) unless noted.
Procedure, shortened: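 GCN5L2 (20 nM) in 50mM HEPES pH 7.5, 0.1mM EDTA, 0.01% Tween-20 preincubated 15 min with compounds at room temperature. Reaction started with H3(1-25) 75uM, acetyl-CoA 70uM, ThioGlo1 50uM; CoA-thiol fluorescence (Ex340/Em540) read at 0 and 20 min.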
On the % scale 0 is the no-effect control and ±100 the full control effect; potency means the concentration at half of the fitted maximal effect.

Structure (SMILES) | Potency | activity change, negative = inhibition
COc1cc(/C=N/NC(=O)c2cncc(Br)c2)cc([N+](=O)[O-])c1O | inconclusive: 39.8 µM [inhibitor, single point] | –
Cc1cc(C)cc(NC(=O)CSc2nc3c(oc4ccccc43)c(=O)n2-c2ccccc2F)c1 | inactive | –
COc1cc(-c2oc3cc(O)ccc3c(=O)c2O)ccc1O | inconclusive: 35.5 µM [inhibitor, single point] | –
CC(=O)Nc1nnc(COc2ccccc2)s1 | inconclusive: 28.2 µM [inhibitor, single point] | –
Cc1[nH]n(C2=NCCS2)c(=O)c1N=Nc1ccccc1 | inconclusive: 17.8 µM [inhibitor, partial curve] | –
CC(C)(C)c1cc(-c2ccccc2)n[nH]1 | inconclusive: 5.01 µM [inhibitor, single point] | –
CCCc1nc2c(c(=O)c3ccccc3n2C)c(=O)n1-c1cc(C)cc(C)c1 | inconclusive: 7.08 µM [inhibitor, full curve, poor fit] | –
Cc1ccc2c(c1)[nH]c1c(=O)n(CCC3=CCCCC3)cnc12 | active: 2.51 µM | –
CCC(NC(=O)c1cc(COc2ccc(Cl)cc2OC)on1)c1ccncc1 (stereo not drawn) | inconclusive: 1.12 µM [inhibitor, full curve, poor fit] | –
CC(C)(C)c1ccc(-c2nc(SCCOc3ccc(Cl)cc3)n3[nH]c(=O)cc3n2)cc1 | inconclusive: 11.2 µM [inhibitor, partial curve] | –
O=C(CCc1ccccc1)NCc1ccncc1 | inconclusive: 7.08 µM [inhibitor, single point] | –
OCCOCCN1CCN(C2=Nc3ccccc3Sc3ccccc32)CC1 | inconclusive: 39.8 µM [inhibitor, single point] | –
Cc1cc(C)n(CCNC(=O)C2CCC(=O)N(CCc3cccc(F)c3)C2)n1 (stereo not drawn) | inconclusive: 39.8 µM [inhibitor, partial curve, poor fit] | –
COc1ccc(C(F)(F)F)cc1N/C=C\c1nnnn1-c1ccc(C)cc1 | inconclusive: 6.31 µM [inhibitor, single point] | –
COc1ccc(OCc2nn[nH]n2)cc1 | inactive | –
O=C1C(NS(=O)(=O)c2cccs2)=C(N2CCN(c3cccc(C(F)(F)F)c3)CC2)C(=O)c2ccccc21 | inconclusive: 12.6 µM [inhibitor, partial curve] | –
CCCCn1c(N)c(N(C)C(=O)c2cc3c(F)cccc3s2)c(=O)[nH]c1=O | inactive | –
COc1cc(C(=O)N/C(=C\c2cn(S(=O)(=O)N(C)C)c3ccccc23)C(=O)NCCCO)cc(OC)c1OC | inconclusive: 0.794 µM [inhibitor, single point] | –
Cc1ccc(C)c(N2CCN(C(=O)CCCn3c(=S)[nH]c4cc5c(cc4c3=O)OCO5)CC2)c1 | inconclusive: 14.1 µM [inhibitor, partial curve, poor fit] | –
Cc1onc(-c2ccccc2Cl)c1NC(=O)NCc1cccs1 | inactive | –
O=C(Nc1cccc(C(F)(F)F)c1)Nc1cc(Cl)ccc1C(=O)O | active: 22.4 µM | –
OCCN(CC#CC(O)(c1ccccc1)c1cccc(F)c1)CCO (stereo not drawn) | inconclusive: 7.08 µM [inhibitor, single point] | –

Structure (SMILES) | Potency | activity change, negative = inhibition
CCC(CC)NC(=O)COn1nnc2ccc(S(=O)(=O)N3CCOCC3)cc21 | inconclusive: 39.8 µM [inhibitor, single point] | –
COC(=O)C1=C(C)NC(C)=C(C(=O)OC)C1c1ccc(N(C)C)cc1 | inconclusive: 3.55 µM [inhibitor, partial curve] | –
O=C(/C=C/c1ccccc1)c1ccc(O[C@H]2OC(CO)C(O)C(O)C2O)cc1O (stereo partly drawn) | inactive | –
COc1ccc2nc(NC(=O)c3nc(S(=O)(=O)Cc4ccccc4F)ncc3Cl)sc2c1 | inconclusive: 35.5 µM [inhibitor, single point] | –
CC1(C)CC2CC(C)(CN2S(=O)(=O)c2ccc(C(=O)Nc3cc(S(=O)(=O)N4CCOCC4)ccc3Cl)cc2)C1 (stereo not drawn) | inactive | –
COc1cc(OC)c2c(N)c(C#N)c(C(F)(F)C(F)(F)F)nc2c1 | – | inconclusive: -40.3% [inhibitor] [at 0.501 µM]
COc1cc2c(cc1OC)C1O[C@](CCCCN3C(=O)c4ccccc4C3=O)(C2)Oc2c1c(=O)oc1ccc(F)cc21 | inconclusive: 3.55 µM [inhibitor, single point] | –
O=c1[nH]cc(S(=O)(=O)c2ccccc2)[nH]1 | inactive | –
O=C(c1cnn2c1NC(c1ccco1)CC2C(F)(F)F)N1CCN(c2cccc(Cl)c2)CC1 (stereo not drawn) | inconclusive: 12.6 µM [inhibitor, partial curve] | –
Cc1ccc(CNC(=O)CCc2c(C)nc3c(c(C)nn3-c3ccc(C)cc3)c2C)cc1 | inactive | –
O=C(NNc1cccc(Cl)n1)Nc1ccccc1 | inactive | –
CC(=O)c1ccc(NC(=O)C2=CC(c3cccs3)=NS(=O)(=O)N2C)cc1 | inactive | –
O=c1c2ccccc2nc(/C=C/c2ccc(O)cc2)n1CCc1ccccc1 | inactive | –
COc1ccc(-c2cn3nc(SCC(=O)NCC4CCCO4)ccc3n2)cc1 (stereo not drawn) | inconclusive: 35.5 µM [inhibitor, single point] | –
O=C(Cc1ccc(Cl)cc1)Nc1ccccc1N1CCOCC1 | inconclusive: 5.01 µM [inhibitor, single point] | –
Cc1c(C(=O)OC2CCCCC2)[nH]c2c1C(=O)CC(c1ccccc1Cl)C2 (stereo not drawn) | inactive | –
COc1ccc(C2=NS(=O)(=O)N(C)C(C(=O)Nc3ccc(F)cc3F)=C2)cc1 | inconclusive: 39.8 µM [inhibitor, single point] | –
COc1cccc(/C=N/c2oc(-c3ccccc3)cc2C#N)c1O | inconclusive: 2.82 µM [inhibitor, full curve, poor fit] | –
C/C(=N\NC(=O)c1ccc(O)cc1)c1ccc2c(c1)Nc1ccccc1S2 | inconclusive: 20 µM [inhibitor, partial curve, poor fit] | –
CCOC(=O)C1CCN(C(=O)c2cc3c(=O)n4ccccc4nc3n2C)CC1 | inconclusive: 31.6 µM [inhibitor, single point] | –
COCCOc1ccc(C(F)(F)F)cc1Nc1nc2ccccc2o1 | inactive | –

13 structures already listed, sorted by SMILES length, ascending.
Structure (SMILES) | Potency | activity change, negative = inhibition
O=C(NNc1cccc(Cl)n1)Nc1ccccc1 | inactive | –
O=c1[nH]cc(S(=O)(=O)c2ccccc2)[nH]1 | inactive | –
O=C(Cc1ccc(Cl)cc1)Nc1ccccc1N1CCOCC1 | inconclusive: 5.01 µM [inhibitor, single point] | –
COCCOc1ccc(C(F)(F)F)cc1Nc1nc2ccccc2o1 | inactive | –
COc1cccc(/C=N/c2oc(-c3ccccc3)cc2C#N)c1O | inconclusive: 2.82 µM [inhibitor, full curve, poor fit] | –
COc1ccc(-c2cn3nc(SCC(=O)NCC4CCCO4)ccc3n2)cc1 (stereo not drawn) | inconclusive: 35.5 µM [inhibitor, single point] | –
COc1cc(OC)c2c(N)c(C#N)c(C(F)(F)C(F)(F)F)nc2c1 | – | inconclusive: -40.3% [inhibitor] [at 0.501 µM]
CCC(CC)NC(=O)COn1nnc2ccc(S(=O)(=O)N3CCOCC3)cc21 | inconclusive: 39.8 µM [inhibitor, single point] | –
Cc1c(C(=O)OC2CCCCC2)[nH]c2c1C(=O)CC(c1ccccc1Cl)C2 (stereo not drawn) | inactive | –
CC(=O)c1ccc(NC(=O)C2=CC(c3cccs3)=NS(=O)(=O)N2C)cc1 | inactive | –
COc1ccc(C2=NS(=O)(=O)N(C)C(C(=O)Nc3ccc(F)cc3F)=C2)cc1 | inconclusive: 39.8 µM [inhibitor, single point] | –
Cc1ccc(CNC(=O)CCc2c(C)nc3c(c(C)nn3-c3ccc(C)cc3)c2C)cc1 | inactive | –
O=C(c1cnn2c1NC(c1ccco1)CC2C(F)(F)F)N1CCN(c2cccc(Cl)c2)CC1 (stereo not drawn) | inconclusive: 12.6 µM [inhibitor, partial curve] | –
